These are literature values, as cited in patent US9944597B2, “Polysubstituted pyrroles having microtubule-disrupting, cytotoxic and antitumor activities and methods of use thereof” (THE BOARD OF REGENTS OF THE UNIVERSITY OF TEXAS SYSTEM, priority 2013, dated 2018).

Usually IC50 stands for the point on the concentration scale where inhibition reaches its midpoint.

The data set has as its system MDA-MB-435 (human melanoma cancer cells). The conditions noted are these: Table 53; literature data from Da et al. 2013; read-out: MDA-MB-435 Antiproliferative IC50; cited from earlier work.

For the compound `COc1cc2c(c(OC)c1OC)-c1ccc(OC)c(=O)cc1[C@@H](NC(C)=O)CC2` [colchicine, Colchicine], the IC50 was 16 ± 2 nM.
